Measurements reported in patent publication US8545876B1, “Modified drugs for use in liposomal nanoparticles” (The University of British Columbia, priority 2008, dated 2013).
Some of these results come from one statement about several compounds together.

Experiment: Chemical (hydrolytic) stability in buffered aqueous solutions
Format: physicochemical
Conditions: 24 hour incubation in pH 4 buffer, 37° C.
Experimental: The chemical stability of the docetaxel derivatives was determined in aqueous solutions at different pH values and temperatures, and in biological media (mouse plasma). Aliquots of the docetaxel derivatives in acetonitrile were mixed with buffered citrate/HEPES (10 mM/10 mM) solutions at pH 4.0 and 7.5, or in mouse plasma in 1 mL glass HPLC sample vials sealed with Teflon-lined caps (final volume 0.25 ml, final docetaxel derivative concentration 50 µg/ml). Drug stability was determined 1, 4 and 24 hrs after incubation at 37° C. by UPLC-UV. At the indicated time points, a 3-fold excess of methanol/0.1% TFA was added to the sample. Citrate/HEPES buffered samples were analyzed by UHPLC as described above. For plasma samples, proteins precipitated by the addition of methanol/0.1% TFA pelleted by centrifugation at 14,000×g and supernatants were analyzed for the drug derivatives. Heparanized mouse plasma was diluted to 50% with 100 mM sodium-phosphate buffer to keep the pH constant throughout the experiment.
To be suitable for formulation in LN, derivatives must be stable at pH 4 (the pH present inside the LN carrier). In addition, prodrug derivatives should readily form the active drug under physiological conditions (e.g., at pH 7.4 and/or in the presence of endogenous enzymes) once released from the LN. […]

Row | Compound | Prodrug levels (% remaining), pH 4
1 | CC(=O)O[C@@]12CO[C@@H]1C[C@H](O)[C@@]1(C)C(=O)[C@H](O)C3=C(C)[C@@H](OC(=O)[C@H](OC(=O)CCCN4CCCCC4)[C@@H](NC(=O)OC(C)(C)C)c4ccccc4)C[C@@](O)([C@@H](OC(=O)c4ccccc4)C12)C3(C)C (some centres unmarked) [TD7, Piperidinyl butanoic acid ester] | adequate stability
2 | CC(=O)O[C@@]12CO[C@@H]1C[C@H](O)[C@@]1(C)C(=O)[C@H](O)C3=C(C)[C@@H](OC(=O)[C@H](OC(=O)CCCCN4CCCCC4)[C@@H](NC(=O)OC(C)(C)C)c4ccccc4)C[C@@](O)([C@@H](OC(=O)c4ccccc4)C12)C3(C)C (some centres unmarked) [TD9, Piperidinyl pentanoic acid ester] | adequate stability
